Where a chain is given by its changes, count along the chain named. For part of these data: A weaker result is weaker than the reference pair of the same experiment. Where a protein sequence is shown, tags need not be part of it. For part of these data: The exact form of at least one protein or probe is not confirmed. For part of these data: At least one verdict rests on a figure or table, not on a statement of the authors.
How the values were obtained:
[1] = target: T1, CadC1-107 (DBD) (Escherichia coli) (UniProt P23890); assay: EMSA; details: value only in figure, EMSA/NMR/ITC: 20 mM BisTris, 150 mM NaCl, pH 6.5, RT (NMR 10% D2O, 298 K; imino spectra 283 K), recombinant protein, residues 1-107, protein details: His6-thioredoxin removed by TEV
T1 sequence (looked up): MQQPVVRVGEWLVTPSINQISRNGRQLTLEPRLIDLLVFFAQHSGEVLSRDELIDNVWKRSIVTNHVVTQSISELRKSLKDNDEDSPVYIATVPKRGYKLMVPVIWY

[2] = target: T1, CadC1-107 (DBD) (Escherichia coli); assay: ITC; details: value only in figure; imino spectra 283 K); recombinant protein; residues 1-107; protein details: His6-thioredoxin removed by TEV
[3] = target: T2, CadC1-159 R50A (Escherichia coli) (UniProt P23890); assay: SPR; details: binding almost abolished; SPR: 10 mM HEPES pH 7.4, 150 mM NaCl, 3 mM EDTA, 0.05% P20, 25 C; recombinant protein; residues 1-159; protein details: His6-thioredoxin removed by TEV
T2 sequence (looked up): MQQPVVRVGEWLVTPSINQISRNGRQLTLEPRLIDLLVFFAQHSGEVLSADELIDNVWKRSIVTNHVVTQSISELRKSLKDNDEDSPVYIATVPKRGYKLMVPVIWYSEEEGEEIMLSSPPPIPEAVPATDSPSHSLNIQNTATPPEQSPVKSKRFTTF

[4] = target: T3, CadC1-159 R76A (Escherichia coli) (UniProt P23890); assay: SPR; details: binding almost abolished; SPR: 10 mM HEPES pH 7.4, 150 mM NaCl, 3 mM EDTA, 0.05% P20, 25 C; recombinant protein; residues 1-159; protein details: His6-thioredoxin removed by TEV
T3 sequence (looked up): T2 sequence (looked up) with A50R, R76A

[5] = target: T4, CadC1-159 R96A (Escherichia coli) (UniProt P23890); assay: SPR; details: reduced binding; SPR: 10 mM HEPES pH 7.4, 150 mM NaCl, 3 mM EDTA, 0.05% P20, 25 C; recombinant protein; residues 1-159; protein details: His6-thioredoxin removed by TEV
T4 sequence (looked up): T2 sequence (looked up) with A50R, R96A

Q: Does “TGATATCAACTTG (double strand) [Cad1C 13-mer]” bind ([1]; slightly lower affinity than Cad1A/B)?
A: binds more weakly

Q: Does “TTGTAAACATTAAATGTTTATCTTTTCATGATATCAACTTG (double strand) [Cad1 41-mer WT]” bind [2]?
A: binds

Q: Does “TTGTAAACATTAAATGTTTATCTTTTCATGATATCAACTTG (double strand) [Cad1 41-mer WT]” bind [1]?
A: binds

Q: Does “TTGTAAACATTAAATGTTTATCTTTTCATGATATCAACTTG (double strand) [Cad1 41-mer, biotinylated (SPR)]” bind [3]?
A: binds more weakly

Q: Does “TTGTAAACATTAAATGTTTATCTTTTCATGATATCAACTTG (double strand) [Cad1 41-mer, biotinylated (SPR)]” bind [4]?
A: binds more weakly

Q: Does “TTGTAAACATTAAATGTTTATCTTTTCATGATATCAACTTG (double strand) [Cad1 41-mer, biotinylated (SPR)]” bind [5]?
A: binds more weakly

Source: PMC5430869, “Structure-function analysis of the DNA-binding domain of a transmembrane transcriptional activator”
